Test results as given in patent publication US5336483A (priority 1993, dated 1994).

Assays:
[1] = tested on: Low Affinity δ Receptors; assay: Displacement of [^3 H]DADLE, low affinity δ receptors, rat lysed-P2 membranes; format: binding
[2] = tested on: κ2 receptor; assay: Displacement of [^3 H]BRM (bremazocine), κ2 receptor binding, guinea pig brain membranes depleted of μ and δ sites; conditions: [^3 H]BRM displacement
[3] = tested on: μ and κ2 receptor; assay: Displacement of [^3 H]CycloFOXY, μ and κ2 receptor binding, rat brain lysed-P2 membranes; conditions: [^3 H]CycloFOXY displacement

| Compound | N (slope factor) [1] | N (slope factor) [2] | N (slope factor) [3] |
| --- | --- | --- | --- |
| Oc1ccc2c3c1O[C@H]1[C@H](Br)CC[C@@]4(O)[C@@H](C2)N(CC2CC2)CC[C@]314 [CycloBROXY, reference compound] | 0.83 ± .02 | 0.55 ± .02 | 1.04 ± 0.04 |
| Oc1ccc2c3c1O[C@H]1[C@@H](I)CC[C@@]4(O)[C@@H](C2)N(CC2CC2)CC[C@]314 [EpilOXY, 6α-Iodo-3,14-Dihydroxy-17-Cyclopropylmethyl-4,5α-Epoxymorphinan] | 0.94 ± .06 | 0.76 ± .03 | 1.21 ± 0.06 |
| Oc1ccc2c3c1O[C@H]1[C@H](I)CC[C@@]4(O)[C@@H](C2)N(CC2CC2)CC[C@]314 [IOXY, 6β-Iodo-3,14-Dihydroxy-17-Cyclopropylmethyl-4,5α-Epoxymorphinan] | 0.76 ± .05 | 0.74 ± .02 | 0.99 ± 0.06 |
| O=C1CC[C@@]2(O)[C@H]3Cc4ccc(O)c5c4[C@@]2(CCN3CC2CC2)[C@H]1O5 [Naltrexone, reference compound] |  | 0.74 ± .02 |  |
